# In the supplement of paper PMC6411743:
# ± gives the standard deviation of the averaged measurements. The list shows a part of the results.
# Molecular target: T1, LMAN2 (UniProt Q12907)
# T1 sequence (whole entry): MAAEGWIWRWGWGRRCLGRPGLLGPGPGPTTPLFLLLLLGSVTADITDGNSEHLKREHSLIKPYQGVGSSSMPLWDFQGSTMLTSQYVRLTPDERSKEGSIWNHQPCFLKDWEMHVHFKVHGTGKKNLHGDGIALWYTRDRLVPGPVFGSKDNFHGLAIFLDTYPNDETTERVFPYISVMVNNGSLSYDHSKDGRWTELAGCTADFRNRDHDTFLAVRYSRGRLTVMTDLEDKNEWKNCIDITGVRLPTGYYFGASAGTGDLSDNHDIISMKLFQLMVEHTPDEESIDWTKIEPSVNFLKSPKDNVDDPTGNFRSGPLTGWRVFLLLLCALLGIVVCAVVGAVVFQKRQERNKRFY
# Assay: NP40-soluble protein abundance relative to vehicle (solubility fold change) (ratio); higher = more soluble protein in presence of GTP
# Method: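 Solubility proteome profiling in Jurkat crude lysate. Lysate was treated with Mg-GTP (0.1-10 mM) for 10 min at room temperature and 3 min at 37 °C, then solubilised with 0.8% NP40 and benzonase, followed by ultracentrifugation. Proteins were quantified by TMT10 LC-MS/MS; the value is the NP40-soluble abundance relative to the NP40-processed vehicle, from 3 independent experiments.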
structure (smiles),measurement,setting,value
Nc1nc2c(ncn2[C@@H]2O[C@H](COP(=O)(O)OP(=O)(O)OP(=O)(O)O)[C@@H](O)[C@H]2O)c(=O)[nH]1 [guanosine triphosphate],NP40-soluble protein abundance,concentration: 0.1mM,0.978 ± 0.075
same,NP40-soluble protein abundance,concentration: 0.5mM,0.969 ± 0.067
same,NP40-soluble protein abundance,concentration: 1mM,0.895 ± 0.081
same,NP40-soluble protein abundance,concentration: 2mM,0.891 ± 0.07
same,NP40-soluble protein abundance,concentration: 4mM,0.891 ± 0.089
same,NP40-soluble protein abundance,concentration: 6mM,0.855 ± 0.049
same,NP40-soluble protein abundance,concentration: 8mM,0.858 ± 0.095
same,NP40-soluble protein abundance,concentration: 10mM,0.85 ± 0.083
